Construct, isoform or probe ends are uncertain for at least one entry. For part of these data: Where a protein sequence is shown, tags need not be part of it.
Experiments:
[1] = system: RsaI restriction endonuclease (R.RsaI) (Rhodopseudomonas sphaeroides); assay: enzyme reaction in vitro; conditions: clarified extract of IPTG-induced cells, 1 ug lambda DNA in 50 ul, 37 C 1 h; protein in a lysate after overexpression; only the motif is given
[2] = system: RsaI methylase (M.RsaI) (Rhodopseudomonas sphaeroides); assay: activity in cells; conditions: plasmid from expressing cells completely modified against RsaI digestion; protein in cells; only the motif is given
[3] = molecular target: T1, MjaV methylase (M.MjaV) (Methanococcus jannaschii) (UniProt Q58893); assay: activity in cells; conditions: plasmid from expressing cells completely modified against RsaI digestion; protein in cells; only the motif is given
T1 sequence (looked up, limits assumed): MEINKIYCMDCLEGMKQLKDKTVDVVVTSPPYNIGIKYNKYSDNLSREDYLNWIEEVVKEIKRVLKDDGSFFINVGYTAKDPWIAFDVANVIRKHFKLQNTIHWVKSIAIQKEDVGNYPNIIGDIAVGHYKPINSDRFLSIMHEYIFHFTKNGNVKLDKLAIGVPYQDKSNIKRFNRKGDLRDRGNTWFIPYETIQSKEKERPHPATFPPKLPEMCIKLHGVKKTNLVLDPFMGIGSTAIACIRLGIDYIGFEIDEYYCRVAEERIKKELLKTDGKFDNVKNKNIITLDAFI

Sequence: GTAC (double strand) [lambda DNA (RsaI sites GTAC)]
- activity on this sequence [1]: active

Sequence: GTAC (double strand) [pIH919-rsaIM plasmid DNA (RsaI sites GTAC)]
- activity on this sequence [2]: active

Sequence: GTAC (double strand) [pSX20-mjaVM plasmid DNA (RsaI sites GTAC)]
- activity on this sequence [3]: active
